Laboratory results published in patent US9579335B2, “Treatment of cystic diseases” (Indiana University Research and Technology Corporation, priority 2010, dated 2017).
For at least one compound, name, drawing or mass did not settle the structure.

Tested on: mpkCCDcl4 cells
Assay: Ussing-chamber short-circuit current (SCC) measurement of net transepithelial ion transport
Assay type: cell-based, mouse
Conditions: added to the bathing media of monolayers; no prior stimulus
Description: mpkCCDcl4 cell culture. mpkCCDcl4 cells were developed as a line expressing the characteristics of the principal cell type of the distal nephron and cortical collecting duct. mpkCCDcl4 cells were grown in a humidified chamber at 37° C. and 5% CO2. The cell line was maintained in plastic culture flasks for propagation. For electrophysiological measurements, the cells were seeded onto Transwell filters at ¼ confluent density. The media was replaced thrice weekly and consisted of Dulbecco's modified Eagle's medium (DMEM): Ham's F12 basal media supplemented with 2% fetal bovine serum, 1 mM Glutamax, 25 U/mL penicillin, […] streptomycin, 12 mg/L ciprofloxacin, 5 mg/L transferrin, 20 μg/L sodium selenite, and 10^−7 M triiodothyronine.
Electrophysiology. […] The spontaneous transepithelial potential difference was measured and then clamped to zero. […] Cultures with resistances lower than 1000 Ω·cm^2 measured within the first 10 minutes of placement in the chambers were discarded. The basal level of transport was monitored for 20-40 minutes before the start of an experiment. […]
The functional effects of cyst fluid were measured as changes in net transepithelial ion transport across high resistance epithelia formed by the mpkCCDcl4 cell line. […] The spontaneous transepithelial potential difference is measured and clamped to zero. […]

C=C[C@@]1(C)CC(=O)[C@]2(O)[C@@]3(C)[C@@H](O)CCC(C)(C)[C@@H]3[C@H](O)[C@H](OC(C)=O)[C@@]2(C)O1 [Forskolin, forskolin]
ion transport (SCC) response to addition of the substance itself: slow, sustained increase in transport
